PubChem BioAssay AID686938 – Drosophila RNAi Screening Center, 2013
The deposit covers about 23,000 reagents; shown is a random part of those that have a named target and a result. In the full data, 75 (0.33%) got an active call. 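Raw plate signals without normalisation; calls rest on plate z-scores that were not deposited; ratio present for only 364 wells.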 A plus sign joins genes that one reagent is predicted to hit. Reagent sequences are not shown. Not given: the dose of the treatment.

Screen: 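Looking for CRAC channel components and the factors controlling them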 (primary screen)
System: Drosophila S2R+ cells
Knock-down reagent: long dsRNA against Drosophila genes, about 0.25 µg dsRNA per well, roughly 10,000 cells
Duration: 5 days of knock-down before the calcium assay
Treatment: thapsigargin (SERCA pump blocker) to empty calcium stores; entry signal taken 4 min after adding it
Read-out: 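Duplicate raw fluo-4 intensities per well from a plate reader, at rest and four minutes after thapsigargin emptied calcium stores; entry-to-rest ratio filled for only some wells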
Reading the numbers: calcium entry signal: higher = stronger calcium signal after store depletion; entry to resting ratio: higher = more calcium entry relative to resting level; resting calcium signal: higher = higher resting calcium signal
Rule for the call: 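Hit if the duplicate-averaged plate z-score for entry over resting signal is under −3; wells with weak total dye signal (Fmax z < −2) or more than 5 off-targets removed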
Meaning of the calls: active = strongly reduced calcium entry; inactive = no strong reduction

| Target gene | dsRNA | calcium entry signal, replicate 1 (fluorescence units) | calcium entry signal, replicate 2 (fluorescence units) | entry to resting ratio | resting calcium signal, replicate 1 (fluorescence units) | resting calcium signal, replicate 2 (fluorescence units) | outcome |
| --- | --- | --- | --- | --- | --- | --- | --- |
| CG6380 | DRSC02950 | 4.31e7 | 2.79e7 | – | 1.93e7 | 1.37e7 | inactive |
| CG8004 | DRSC10947 | 3.65e7 | 4.58e7 | – | 1.71e7 | 3.11e7 | inactive |
| lawc | DRSC22531 | 3.72e7 | 2.32e7 | – | 1.95e7 | 1.12e7 | inactive |
| lawc | DRSC23208 | 5.22e7 | 3.33e7 | – | 2.49e7 | 1.48e7 | inactive |
| bin3 | DRSC04919 | 5.63e7 | 4.11e7 | – | 2.72e7 | 1.97e7 | inactive |
| C1GalTA | DRSC03246 | 5.29e7 | – | – | 2.40e7 | – | inactive |
| Ance-4 | DRSC07104 | 3.91e7 | 4.08e7 | – | 1.68e7 | 1.90e7 | inactive |
| GluRIIE | DRSC13431 | 2.54e7 | 2.39e7 | – | 1.36e7 | 1.16e7 | inactive |
| CG31016 | DRSC21359 | 3.00e7 | 3.72e7 | – | 1.71e7 | 1.62e7 | inactive |
| akirin | DRSC11000 | 4.74e7 | 3.11e7 | – | 3.66e7 | 1.55e7 | inactive |
| Cda9 | DRSC06593 | 4.24e7 | 4.02e7 | – | 1.89e7 | 1.92e7 | inactive |
| DENR | DRSC20151 | 2.92e7 | 3.12e7 | – | 1.38e7 | 1.47e7 | inactive |
| CG5098 | DRSC06915 | 3.90e7 | 3.64e7 | – | 1.84e7 | 1.78e7 | inactive |
| fusl | DRSC02351 | 4.19e7 | – | – | 2.35e7 | – | inactive |
| CG13712 | DRSC08321 | 2.99e7 | 7.76e7 | – | 1.37e7 | 2.65e7 | inactive |
| Lrp4 | DRSC20118 | 3.63e7 | 4.28e7 | – | 1.73e7 | 1.96e7 | inactive |
| Cipc | DRSC14898 | 3.67e7 | 3.93e7 | – | 1.67e7 | 1.85e7 | inactive |
| Cipc | DRSC14900 | 3.77e7 | 5.03e7 | – | 1.92e7 | 2.04e7 | inactive |
| tai | DRSC02207 | 3.96e7 | 4.93e7 | – | 1.93e7 | 2.25e7 | inactive |
| tai | DRSC02673 | 3.37e7 | 5.17e7 | – | 1.71e7 | 2.32e7 | inactive |
| CG8204 | DRSC07106 | 3.49e7 | 3.21e7 | – | 1.75e7 | 1.55e7 | inactive |
| CG16984 | DRSC08500 | 3.80e7 | 5.72e7 | – | 1.93e7 | 2.37e7 | inactive |
| hoe2 | DRSC00459 | 3.07e7 | 3.47e7 | – | 1.49e7 | 1.56e7 | inactive |
| CG7330 | DRSC10813 | 3.73e7 | 5.13e7 | – | 1.78e7 | 1.93e7 | inactive |
| CG7330 | DRSC10814 | 3.33e7 | 5.87e7 | – | 1.73e7 | 1.98e7 | inactive |
| Opbp | DRSC04966 | 3.84e7 | 4.05e7 | – | 2.07e7 | 1.92e7 | inactive |
| CG3502 + CG9863 | DRSC04578 | 3.61e7 | 3.41e7 | – | 1.96e7 | 1.61e7 | inactive |
| SdhAL | DRSC10539 | 5.82e7 | 4.42e7 | – | 3.89e7 | 1.78e7 | inactive |
| prod | DRSC07667 | 2.56e7 | 1.79e7 | – | 1.20e7 | 1.00e7 | inactive |
| CG14384 | DRSC14842 | 1.87e7 | 3.79e7 | – | 9.57e6 | 5.41e7 | inactive |
| nAChRbeta3 | DRSC00325 | 4.32e7 | – | – | 1.75e7 | – | inactive |
| bnl | DRSC13377 | 4.34e7 | 3.40e7 | – | 2.27e7 | 1.68e7 | inactive |
| bnl | DRSC16913 | 3.52e7 | 2.93e7 | – | 1.70e7 | 1.39e7 | inactive |
| bnl | DRSC23212 | 3.80e7 | 4.02e7 | – | 1.97e7 | 1.94e7 | inactive |
| Nepl16 | DRSC14650 | 4.73e7 | 5.11e7 | – | 2.43e7 | 2.24e7 | inactive |
| Prosbeta2R1 | DRSC18154 | 3.27e7 | 4.58e7 | – | 1.71e7 | 2.11e7 | inactive |
| salt | DRSC15427 | 5.60e7 | 4.86e7 | – | 2.11e7 | 2.14e7 | inactive |
| Smyd4-3 | DRSC07041 | 2.37e7 | 3.03e7 | – | 1.13e7 | 1.37e7 | inactive |
| dy | DRSC20325 | 3.91e7 | 6.60e7 | – | 1.88e7 | 2.82e7 | inactive |
| CG1889 | DRSC18195 | 4.06e7 | 3.91e7 | – | 1.92e7 | 1.71e7 | inactive |
| CG8008 | DRSC07053 | 2.42e7 | 2.29e7 | – | 1.10e7 | 1.11e7 | inactive |
| Gpdh3 | DRSC15325 | 3.61e7 | 4.51e7 | – | 6.34e7 | 2.18e7 | inactive |
| CR4575 | DRSC18372 | 3.27e7 | 4.71e7 | – | 1.65e7 | 2.26e7 | inactive |
| Pp1-13C | DRSC20269 | 1.24e7 | 2.02e7 | – | 9.08e6 | 1.06e7 | inactive |
| Pp1-13C | DRSC23305 | 4.10e7 | 4.69e7 | – | 2.20e7 | 2.10e7 | inactive |
| Rb97D | DRSC16815 | 2.84e7 | 4.26e7 | – | 1.51e7 | 1.92e7 | inactive |
| Cbp80 | DRSC18450 | 1.57e7 | 1.71e7 | – | 9.03e6 | 9.73e6 | inactive |
| CG31815 | DRSC01548 | 2.04e7 | 2.98e7 | – | 1.25e7 | 1.30e7 | inactive |
| CG17107 | DRSC02575 | 3.45e7 | 4.23e7 | – | 1.76e7 | 1.99e7 | inactive |
| CG17107 | DRSC22627 | 4.60e7 | 3.17e7 | – | 2.44e7 | 1.50e7 | inactive |
| SoYb | DRSC02901 | 3.81e7 | 4.84e7 | – | 1.60e7 | 2.06e7 | inactive |
| CG13912 | DRSC08381 | 2.61e7 | 3.50e7 | – | 1.37e7 | 1.54e7 | inactive |
| w | DRSC17233 | 3.91e7 | 5.00e7 | – | 2.09e7 | 2.18e7 | inactive |
| w | DRSC18850 | 3.29e7 | 5.11e7 | 1.9 | 1.74e7 | 2.07e7 | inactive |
| CG30398 | DRSC03891 | 2.23e7 | 3.86e7 | – | 1.03e7 | 1.72e7 | inactive |
| CG15642 | DRSC19678 | 2.63e7 | 2.87e7 | – | 1.43e7 | 1.38e7 | inactive |
| CG4362 | DRSC15567 | 3.17e7 | 3.51e7 | – | 4.04e7 | 1.51e7 | inactive |
| CG4238 | DRSC00090 | 4.14e7 | 3.54e7 | – | 2.14e7 | 1.63e7 | inactive |
| CG4238 | DRSC00644 | 4.12e7 | 4.80e7 | – | 1.83e7 | 1.96e7 | inactive |
| Rdh1 | DRSC06812 | 2.68e7 | 1.94e7 | – | 1.22e7 | 8.83e6 | inactive |
| CG3323 | DRSC18303 | 3.07e7 | 2.94e7 | – | 1.51e7 | 1.51e7 | inactive |
| Sar1 | DRSC17049 | 2.11e7 | 2.81e7 | – | 1.17e7 | 1.33e7 | inactive |
| Sar1 | DRSC22115 | 3.52e7 | 3.95e7 | – | 1.76e7 | 2.00e7 | inactive |
| Panx | DRSC04563 | 3.06e7 | 5.31e7 | – | 1.50e7 | 2.18e7 | inactive |
| CG14205 | DRSC19560 | 3.47e7 | 4.60e7 | – | 1.83e7 | 1.91e7 | inactive |
| CG11151 | DRSC19387 | 2.26e7 | 1.74e7 | – | 1.30e7 | 9.40e6 | inactive |
| CG6696 | DRSC20004 | 4.38e7 | 4.14e7 | – | 1.92e7 | 1.57e7 | inactive |
| CheA86a | DRSC12839 | 2.23e7 | 3.24e7 | – | 1.06e7 | 1.48e7 | inactive |
| CG7402 | DRSC10839 | 5.50e7 | 7.96e7 | – | 2.54e7 | 2.81e7 | inactive |
| CG13300 | DRSC09974 | 3.37e7 | 4.67e7 | – | 1.72e7 | 1.90e7 | inactive |
| CG9568 | DRSC03265 | 3.88e7 | 3.69e7 | – | 1.73e7 | 1.78e7 | inactive |
| Cyp4ac2 | DRSC03303 | 3.46e7 | 3.45e7 | – | 1.60e7 | 1.69e7 | inactive |
| eIF3d2 | DRSC15651 | 4.22e7 | 5.58e7 | – | 1.69e7 | 2.24e7 | inactive |
| CG12096 | DRSC21692 | 3.51e7 | 3.15e7 | – | 2.19e7 | 1.51e7 | inactive |
| eIF4E5 | DRSC10975 | 3.24e7 | 4.37e7 | – | 1.46e7 | 2.04e7 | inactive |

Targets above whose gene name starts with P or p:
| Target gene | dsRNA | calcium entry signal, replicate 1 (fluorescence units) | calcium entry signal, replicate 2 (fluorescence units) | entry to resting ratio | resting calcium signal, replicate 1 (fluorescence units) | resting calcium signal, replicate 2 (fluorescence units) | outcome |
| --- | --- | --- | --- | --- | --- | --- | --- |
| prod | DRSC07667 | 2.56e7 | 1.79e7 | – | 1.20e7 | 1.00e7 | inactive |
| Prosbeta2R1 | DRSC18154 | 3.27e7 | 4.58e7 | – | 1.71e7 | 2.11e7 | inactive |
| Pp1-13C | DRSC20269 | 1.24e7 | 2.02e7 | – | 9.08e6 | 1.06e7 | inactive |
| Pp1-13C | DRSC23305 | 4.10e7 | 4.69e7 | – | 2.20e7 | 2.10e7 | inactive |
| Panx | DRSC04563 | 3.06e7 | 5.31e7 | – | 1.50e7 | 2.18e7 | inactive |
